Measured values: the supplement of paper PMC12889115
The other results are listed elsewhere or left out. Values are raw readings; no control value is given beside them.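 Primary screen: polymyxin B was added at a level permeabilizing Salmonella outer membranes while sparing inner membranes. DMSO wells, both with and without polymyxin B, established maximum growth. Plate-to-plate variation meant each plate was ranked on its own, and the lowest-OD600 compounds were selected as hits.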

Test system: Salmonella enterica serovar Typhimurium SL1344
Test: bacterial growth OD600 after 18 h with compound and polymyxin B; higher = more bacterial growth (less inhibition)
Conditions: 50 µM, Mueller-Hinton broth

Structure (SMILES) | bacterial growth OD600 (polymyxin B 1 µg/mL) | bacterial growth OD600 (polymyxin B 0.75 µg/mL)
CC(=O)c1cccc(OCc2cc(C(=O)N(C)CC3CCCCO3)no2)c1 (stereo unspecified) | 0.939 | 
COc1ccc(CN2C(=O)O[C@@H]3CN(Cc4ccc(C)s4)C[C@@H]32)cc1OC |  | 0.721
COCCN(C)C(=O)c1coc(COc2cccc(F)c2)n1 | 1.02 | 
O=C(CCc1ccc(F)c(F)c1)NC1CCCN(CCc2ccccc2)C1 (stereo unspecified) | 0.773 | 
Cc1ccccc1CCN1CCC(CN(C(=O)CN2CCOC2=O)C2CCCC2)CC1 | 0.844 | 
COc1ccc(OC)c(C2CCN(Cc3nc(-c4ccc5c(c4)OCO5)no3)C2)c1 (stereo unspecified) | 0.856 | 
COc1ccc(NC2CCCN(C(=O)CSc3ccccc3)C2)cc1OC (stereo unspecified) | 0.843 | 
CCOC(=O)C1CCN(C2CCN(c3ccc(C(=O)NCc4ccccc4F)cc3)CC2)CC1 |  | 0.759
O=C(NCc1cccc(F)c1F)C1CCC(=O)N(C2CC2)C1 (stereo unspecified) | 0.838 | 
OCCC1CN(Cc2cccn2-c2nccs2)CCN1Cc1ccccc1F (stereo unspecified) | 1.09 | 
COc1cccc(-c2noc(-c3ccc(NC(C)(C)CO)nc3)n2)c1OC |  | 0.537
Clc1cccnc1N1CCC(C2CCN(Cc3cccnc3)CC2)C1 (stereo unspecified) |  | 0.641
C#CCN(Cc1ccco1)C(=O)CCC1(Cc2cc(OC)ccc2F)CCC(=O)N1 (stereo unspecified) |  | 0.859
CSCC(=O)NC1CC(C)(C)Cc2c1cnn2-c1ccc(F)cc1 (stereo unspecified) |  | 0.551
CC(C)(C)NC(=O)C1CCCN(C2CCN(Cc3ccccc3)CC2)C1 (stereo unspecified) |  | 0.949
CC(=O)N[C@@H]1c2ccccc2C2(CCN(C(=O)c3n[nH]c4ccccc34)CC2)[C@H]1OCc1ccccc1 |  | 0.73
Cc1cc(C)cc(-n2ncc3c2CCCC3NC(=O)C(C)(C)O)c1 (stereo unspecified) |  | 0.404
O=C(c1coc(COc2ccc3c(c2)OCO3)n1)N1CCCC1 | 0.991 | 
CCNC(=O)c1cn(C(C)CC)cc(C(=O)N2CCN(c3cccc(C(F)(F)F)c3)CC2)c1=O (stereo unspecified) |  | 0.79
C=CCCC(=O)NC1CCCc2c1cnn2-c1cc(C)cc(C)c1 (stereo unspecified) | 0.541 | 
Cc1cccn2c(CNC(C)CCCC(C)(C)O)c(C(=O)N3CCCCC3)nc12 (stereo unspecified) | 0.878 | 

In a second layout: entries from further up.
Structure (SMILES)	bacterial growth OD600 (polymyxin B 1 µg/mL)	bacterial growth OD600 (polymyxin B 0.75 µg/mL)
CCNC(=O)c1cn(C(C)CC)cc(C(=O)N2CCN(c3cccc(C(F)(F)F)c3)CC2)c1=O (stereo unspecified)		0.79
C=CCCC(=O)NC1CCCc2c1cnn2-c1cc(C)cc(C)c1 (stereo unspecified)	0.541	
